Test results reported in PubChem BioAssay AID2685 (National Center for Advancing Translational Sciences (NCATS), 2010).
The other results are listed elsewhere or left out. The main result of the screen is listed elsewhere. These columns were measured beside it and carry no call. Compounds called inactive in the main read-out are mostly missing here. Potencies come from curve fits of mixed quality, noted in brackets.

Experiment: qHTS Assay for Lipid Storage Modulators in Drosophila S3 Cells;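 for cell number change: cells counted by Cell Tracker Red CMTPX staining in the red channel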
Conditions: BODIPY lipid droplet fluorescence, 18-24 h; for cell number change: measured here: cell count max response, cells fed with added oleic acid
Summary of the method: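 Laser-scanning cytometry quantifies lipid droplet accumulation (500–530 nm total intensity; droplet/cell object ratio) in oleic acid-fed (400 uM added) Drosophila S3 cells treated with a concentration series. 20 uM Triacsin C defined 100% inhibition.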

[1] = measured here: cell number channel AC50, cells fed with added oleic acid
[2] = measured here: lipid fluorescence (Fed channel) AC50, cells fed with added oleic acid

SMILES	cell number change [%]	AC50 [1]	AC50 [2]
COc1cc(/C=C/C(=O)c2ccc(C)c([N+](=O)[O-])c2)cc(OC)c1O	-31.2	16.4 µM [falling, partial curve]	20.6 µM [falling, partial curve]
CC/C(C)=N/NC(=S)NCc1ccco1			0.651 µM [rising, single point]
CCC/C(O)=C1\C(=O)CC(C)(C)CC1=Nc1ccc(OC)cc1OC	-3.62		
COc1ccc(CNC(=O)CC23CC4CC(CC(C4)C2)C3)cc1OC	-11.1		
O=C(O)c1cccc(-n2cccc2/C=C2\NC(=O)N(Cc3ccc(F)cc3)C2=O)c1	1.59	1.84 µM [falling, partial curve]	
COC(=O)C1CSC(C(=O)OC)N1C(=O)CN1CC(C)OC(C)C1 (stereo unspecified)	-77.8	5.8 µM [falling, full curve]	20.6 µM [falling, single point]
COc1ccc(OCC(=O)NCCc2ccc(S(N)(=O)=O)cc2)cc1	11.6		6.51 µM [falling, single point]
CC1CCCCN1S(=O)(=O)c1ccc(C(=O)Nc2nnc(C3=COCCO3)o2)cc1 (stereo unspecified)	-17.1		29.1 µM [falling, single point]
O=C(O)c1ccc(NCc2nc3ccccc3n2CCOc2ccccc2Cl)cc1	-13.7	6.51 µM [falling, single point]	2.06 µM [falling, partial curve, poor fit]
Cc1cccc(/C=N/n2c(C)nnc2C)c1	13.7		29.1 µM [falling, single point]
Cc1nc(SCC(=O)Nc2ccccc2Cl)c2c(C)c(C)sc2n1	-4.9	2.06 µM [rising, partial curve]	13 µM [falling, partial curve, poor fit]
Cc1ccc(Nc2nc(CSc3nnc(-c4cccs4)o3)cs2)cc1		2.06 µM [rising, partial curve]	2.06 µM [rising, partial curve]
CC(C)(O[C@@H]1O[C@H](CO)[C@@H](O)[C@H](O)[C@H]1O)[C@@H]1CC=C(C(=O)O)CC1	6.98		29.1 µM [rising, single point]
COCCn1c(C)cc(C(=O)COC(=O)c2ccc(-n3nc(C)cc3C)cc2)c1C	5.28		0.092 µM [falling, full curve, poor fit]
COc1cc2c(cc1OC)C(C)N(C(=O)c1c(C)noc1C)CC2 (stereo unspecified)	19.9		
Cc1ccccc1OCC(=O)N/N=C1\CC(=O)CC(C)(C)C1	6.45		
Cc1[nH]c(=O)nc(SCc2ccc(Cl)c(Cl)c2)c1C#N	24.6	4.11 µM [rising, full curve, poor fit]	
COc1cc(C(=O)OCC(=O)N2CCN(C(C)=O)CC2)ccc1OCC(C)C	-2.03		
Cc1cccnc1NC(=O)c1ccc([N+](=O)[O-])o1	-22.8		11.6 µM [falling, partial curve]
Cc1[nH]n(C2=NCCS2)c(=O)c1N=Nc1ccccc1		5.17 µM [rising, single point]	
Cc1c(CCOC(=O)c2ccccc2)sc[n+]1CC(=O)c1ccc(Br)cc1	19		6.51 µM [falling, single point]

SMILES	cell number change [%]	AC50 [1]	AC50 [2]
COc1cc(OC)cc(C(=O)NCC(=O)NC(C)CCc2ccccc2)c1 (stereo unspecified)	4.17		0.58 µM [rising, single point]
Cc1ccc(COc2cccc(/C=N/NC(=O)c3nnn(-c4nonc4N)c3C)c2)cc1			29.1 µM [falling, single point]
Cc1ccc(N2C(=O)N(CC(=O)Nc3ccc(C)cc3Cl)C(=O)C2C)cc1 (stereo unspecified)	38.2	3.66 µM [rising, full curve]	3.26 µM [rising, full curve]
COC(=O)C1C(=O)NCC1c1ccc(OC)cc1 (stereo unspecified)	23.9		29.1 µM [falling, single point]
CC(=O)Nc1nnc(COc2ccccc2)s1			0.231 µM [rising, partial curve, poor fit]
CC(C)CCN(C(=O)CNC(=O)c1cccs1)C(C(=O)NC1CCCCC1)c1cccnc1 (stereo unspecified)			20.6 µM [rising, partial curve, poor fit]
O=C(COC(=O)c1ccccc1)Nc1cccc(S(=O)(=O)N2CCOCC2)c1	6.15		16.4 µM [rising, single point]
CC(=O)C1=C(O)C(=O)N(Cc2ccccc2)C1c1cccc([N+](=O)[O-])c1 (stereo unspecified)	20.6		0.146 µM [rising, full curve, poor fit]
CS(=O)(=O)c1ccc(C(=O)Nc2ccccc2N2CCOCC2)c(Cl)c1	13.2	4.11 µM [rising, single point]	
O=C(CCc1ccccc1)Nc1nc2c(F)cc(F)cc2s1		0.00461 µM [rising, full curve, poor fit]	
N#Cc1c(NC(=O)CCC(=O)O)sc2c1CCCC2	14.4		
CCC(NC(=O)c1cc(COc2ccc(Cl)cc2OC)on1)c1ccncc1 (stereo unspecified)	17.6		
Cc1ccc(C)c(NC(=O)CSc2nnc(Cc3cccn3C)n2-c2ccc(F)cc2)c1	15.4		1.84 µM [rising, partial curve, poor fit]
Cc1ccc(SCCC(=O)NCc2ccco2)cc1	-23.1		
COc1c(N2CCN(C(=S)Nc3ccccc3)C(C)C2)c(F)cc2c(=O)c(C(=O)O)cn(C3CC3)c12 (stereo unspecified)	28.9	3.66 µM [rising, full curve, poor fit]	
O=C(Cc1ccc(Cl)cc1)Nc1ncc([N+](=O)[O-])s1	-10		6.51 µM [falling, single point]
OC(COCc1cccs1)CN1CCN(c2ccccn2)CC1 (stereo unspecified)	16.6		3.66 µM [falling, single point]
C/C(=N\OCC(=O)Nn1c(=O)[nH]c2ccccc2c1=O)c1ccccc1	14.1		
CC(=O)NCCC(=O)Nc1cc(S(=O)(=O)N2CCOCC2)ccc1N1CCOCC1	-1.97		1.46 µM [falling, partial curve, poor fit]
Cc1sc2nc(CSC(C)C(=O)Nc3ccc(C(N)=O)cc3)[nH]c(=O)c2c1C (stereo unspecified)	-50.4	25.9 µM [falling, single point]	16.4 µM [falling, partial curve]
CCOC(=O)C1CCN(C(=O)c2ccc3c(c2)NC(=O)/C(=C/c2ccccc2)S3)CC1	0.236		29.1 µM [falling, single point]

Structures above that contain a halogen (12):
SMILES	cell number change [%]	AC50 [1]	AC50 [2]
O=C(O)c1cccc(-n2cccc2/C=C2\NC(=O)N(Cc3ccc(F)cc3)C2=O)c1	1.59	1.84 µM [falling, partial curve]	
O=C(O)c1ccc(NCc2nc3ccccc3n2CCOc2ccccc2Cl)cc1	-13.7	6.51 µM [falling, single point]	2.06 µM [falling, partial curve, poor fit]
Cc1nc(SCC(=O)Nc2ccccc2Cl)c2c(C)c(C)sc2n1	-4.9	2.06 µM [rising, partial curve]	13 µM [falling, partial curve, poor fit]
Cc1[nH]c(=O)nc(SCc2ccc(Cl)c(Cl)c2)c1C#N	24.6	4.11 µM [rising, full curve, poor fit]	
Cc1c(CCOC(=O)c2ccccc2)sc[n+]1CC(=O)c1ccc(Br)cc1	19		6.51 µM [falling, single point]
Cc1ccc(N2C(=O)N(CC(=O)Nc3ccc(C)cc3Cl)C(=O)C2C)cc1 (stereo unspecified)	38.2	3.66 µM [rising, full curve]	3.26 µM [rising, full curve]
CS(=O)(=O)c1ccc(C(=O)Nc2ccccc2N2CCOCC2)c(Cl)c1	13.2	4.11 µM [rising, single point]	
O=C(CCc1ccccc1)Nc1nc2c(F)cc(F)cc2s1		0.00461 µM [rising, full curve, poor fit]	
CCC(NC(=O)c1cc(COc2ccc(Cl)cc2OC)on1)c1ccncc1 (stereo unspecified)	17.6		
Cc1ccc(C)c(NC(=O)CSc2nnc(Cc3cccn3C)n2-c2ccc(F)cc2)c1	15.4		1.84 µM [rising, partial curve, poor fit]
COc1c(N2CCN(C(=S)Nc3ccccc3)C(C)C2)c(F)cc2c(=O)c(C(=O)O)cn(C3CC3)c12 (stereo unspecified)	28.9	3.66 µM [rising, full curve, poor fit]	
O=C(Cc1ccc(Cl)cc1)Nc1ncc([N+](=O)[O-])s1	-10		6.51 µM [falling, single point]

Going on with the list.

SMILES	cell number change [%]	AC50 [1]	AC50 [2]
O=C(CNC(=O)c1ccccc1C(=O)O)c1ccccc1	3.04		6.51 µM [rising, single point]
CC(=O)Nc1ccc(S(=O)(=O)NCc2ccc3[nH]c(C)cc3c2)cc1			0.58 µM [rising, partial curve]
COc1ccc(NC(=O)c2ccccc2N(Cc2ccccc2)S(C)(=O)=O)cc1	-11.2		16.4 µM [falling, partial curve]
Nc1nc(-c2ccc(Cl)cc2)nn1C(=O)c1ccco1	88.1		0.461 µM [rising, partial curve, poor fit]
CCNC(=O)c1ccc(CSc2nc3ccccc3s2)cc1	15.7		0.58 µM [falling, single point]
Cc1ccccc1OCC(O)Cn1c(=N)n(Cc2ccccc2)c2ccccc21 (stereo unspecified)	-70.2	29.1 µM [falling, single point]	13 µM [falling, partial curve, poor fit]
CCCNC(=O)COc1cccc(C(=O)NCc2ccccc2)c1	4.86		29.1 µM [rising, single point]
C[C@]12C(=O)N(c3cccc(F)c3)C(=O)N1[C@@H]1c3ccccc3OC[C@@H]1[C@H]2c1ccccc1	16.2		
NC(=O)CSc1nc2ccccc2nc1SCC(N)=O	34.7	32.6 µM [rising, single point]	29.1 µM [rising, single point]
C/C(N)=C(/C#N)C(=O)COC(=O)C1CSC2(c3ccc(F)cc3)CCC(=O)N12 (stereo unspecified)	-13.9		6.51 µM [rising, single point]
Cc1ccc(Sc2ncccc2C(=O)O)cc1			11.6 µM [rising, single point]
O=C(NCCc1csc(-c2ccccc2)n1)c1ccccc1F	-31.6	0.184 µM [falling, full curve, poor fit]	
CC(=O)Nc1cccc(NC(=O)CSc2ncc(-c3ccc(Cl)cc3)n2Cc2ccco2)c1	-40	14.6 µM [falling, partial curve, poor fit]	
Cc1ccc(-n2nc(C)c3c(=O)[nH]c(C(F)(F)F)nc32)cc1	51	0.0291 µM [rising, full curve, poor fit]	
Cc1cc(=O)n2nc(N3CCCC(C(=O)NC4CCC(C)CC4)C3)sc2n1 (stereo unspecified)	19.3		
O=C(c1cccc(-c2nnc(-c3ccccc3)o2)c1)N1CCCCC1	109		0.103 µM [rising, full curve, poor fit]
CCn1nnc(NC(=O)c2cc3ccccc3o2)n1	8.25		
COC(=O)C1=C(C)NC(C)=C(C(=O)OC)C1c1ccc(-c2cccc([N+](=O)[O-])c2)o1	32.4	29.1 µM [rising, single point]	
Oc1ccc2ccc3[nH]cnc3c2c1	8.53		4.11 µM [rising, full curve, poor fit]
O=C(COC(=O)/C=C/c1ccc(S(=O)(=O)N2CCOCC2)cc1)NCc1ccc2c(c1)OCO2	29.5		

3 structures out of the list, sorted by molar mass, descending.
SMILES	cell number change [%]	AC50 [1]	AC50 [2]
C/C(N)=C(/C#N)C(=O)COC(=O)C1CSC2(c3ccc(F)cc3)CCC(=O)N12 (stereo unspecified)	-13.9		6.51 µM [rising, single point]
O=C(c1cccc(-c2nnc(-c3ccccc3)o2)c1)N1CCCCC1	109		0.103 µM [rising, full curve, poor fit]
CCNC(=O)c1ccc(CSc2nc3ccccc3s2)cc1	15.7		0.58 µM [falling, single point]
